Experimental data as given in PubChem BioAssay AID256 (DTP/NCI, 2004).
The list is a part of this screen's results and no random one: it gathers tests that were run many times, whatever their T/C, doses with no T/C, and many T/C values between a quarter and a half above the control. Further doses and runs are listed elsewhere. T/C gives the treated animals as a percentage of the vehicle group. Some entries give survivors of the animals treated and no T/C: the source files T/C as zero there, which appears to mark a toxic dose or a test without result, not a measured value. Some survivor counts are full or nearly so, which does not show that the dose was tolerated: the source hardly ever lists a survival T/C far under the control, and the zero likely stands for such cases as well. Survivors were counted at the toxicity check, usually on the fifth day, unless a day is given; later deaths do not show. Schedule codes are those of the source, read here as Q, the interval in days (D) or hours (H), X, the number of doses. Some entries were tested several times; the results are listed from low to high. Where survival is the endpoint, the PubChem record calls one and a half times the control and up active, and a quarter to a half above the control has no call in these data; cut-offs in other NCI protocols can differ. Some T/C values are followed by the survivors on the day toxicity was checked, most often the fifth; where none is given, no animal had died by that day. Marks such as (2×) give the number of equal values in this list.

Test system: CD2F1 mice, L1210 leukemia ip, survival T/C
Assay: NCI In Vivo Anticancer Drug Screen. Data for tumor model L1210 Leukemia (intraperitoneal) in CD2F1 (CDF1) mice
Details: higher T/C = longer survival
In short: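 Tumor-bearing mice (transplanted tumor) were split into treated and vehicle control groups, and the measured endpoint of each treated group was divided by that of its vehicle controls.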

[1] = T/C endpoint: mean survival time, dose: 100.0 mg/kg/injection, schedule: Q01DX009 (ip), vehicle: saline with Tween-80
[2] = T/C endpoint: mean survival time, dose: 200.0 mg/kg/injection, schedule: Q01DX009 (ip), vehicle: saline with Tween-80
[3] = T/C endpoint: mean survival time, dose: 400.0 mg/kg/injection, schedule: Q01DX009 (ip), vehicle: saline with Tween-80
[4] = T/C endpoint: mean survival time, dose: 400.0 mg/kg/injection, schedule: Q04DX003 (ip), vehicle: saline with Tween-80

In the case of `CN1CCCN(C)C1c1cc(Br)ccc1O`, the survivor count [1] is reported as 2 of 6, the survivor count [2] is reported as 3 of 6 and the survivor count [3] is reported as 0 of 6.

`OC1CCCC2CCC[N-]C12.OC1CCCC2CCC[N-]C12.[Mn+2]` (centres undefined) was tested, and the survivor count (T/C endpoint: mean survival time, dose: 200.0 mg/kg/injection, schedule: Q01DX009 (ip), vehicle: Klucel (hydroxypropylcellulose) (HPC)) was 3 of 6 and the survivor count (T/C endpoint: mean survival time, dose: 400.0 mg/kg/injection, schedule: Q01DX009 (ip), vehicle: Klucel (hydroxypropylcellulose) (HPC)) was 2 of 6.

`CCC[P+](c1ccccc1)(c1ccccc1)c1ccccc1` was tested, and the survivor count (T/C endpoint: mean survival time, dose: 25.0 mg/kg/injection, schedule: Q01DX009 (ip), vehicle: saline with Tween-80) was 0 of 6, the survivor count (T/C endpoint: mean survival time, dose: 50.0 mg/kg/injection, schedule: Q01DX009 (ip), vehicle: saline with Tween-80) was 0 of 6 and the survivor count [1] was 0 of 6. For the same molecule, the survivor count (T/C endpoint: mean survival time, dose: 150.0 mg/kg/injection, schedule: Q01DX001 (ip), vehicle: other) was 2 of 6 and the survivor count (T/C endpoint: mean survival time, dose: 300.0 mg/kg/injection, schedule: Q01DX001 (ip), vehicle: other) was 0 of 6.

In the case of `COc1cc(Cl)ccc1NC(=O)N1CCN(c2ccccc2)CC1`, the survivor count [1] is reported as 3 of 3.

In the case of `CC1SC(=Nc2ccc(S(N)(=O)=O)cc2)NC1=O` (centres undefined), the survivor count (T/C endpoint: mean survival time, dose: 100.0 mg/kg/injection, schedule: Q01DX001 (ip), vehicle: saline with Tween-80) is reported as 6 of 6 and the survivor count (T/C endpoint: mean survival time, dose: 400.0 mg/kg/injection, schedule: Q01DX001 (ip), vehicle: saline with Tween-80) is reported as 4 of 6.

For `CSc1nc(NC2OC(CO)C(O)C(O)C2O)c(Br)c(=O)n1C` (centres undefined), the survivor count (T/C endpoint: median survival time, dose: 200.0 mg/kg/injection, schedule: Q01DX005 (ip), vehicle: saline with Tween-80) was 2 of 6.

In the case of `N#CCSc1nc(N)nc2nc[nH]c12`, the survivor count [3] is reported as 1 of 6.

`CCCC(=O)c1cccc([N+](=O)[O-])c1` was tested, and the T/C (T/C endpoint: mean survival time, dose: 100.0 mg/kg/injection, schedule: Q01DX009 (ip), vehicle: other) was 94, 98, 103 (2×), 112 % of control, the T/C (T/C endpoint: mean survival time, dose: 200.0 mg/kg/injection, schedule: Q01DX009 (ip), vehicle: other) was 97, 101, 103, 108, 113 % of control and the T/C (T/C endpoint: mean survival time, dose: 400.0 mg/kg/injection, schedule: Q01DX009 (ip), vehicle: other) was 97 (3×), 104 [5 of 6 alive], 133 % of control.

For `O=[N+]([O-])c1ccc(SSc2ccc([N+](=O)[O-])cn2)nc1`, the survivor count [2] was 2 of 6 and the survivor count [4] was 1 of 6.

In the case of `C[CH2][Ge]([CH2]C)[CH2]C.C[CH2][Ge]([CH2]C)[CH2]C.C[CH2][Ge]([CH2]C)[O][Ge]([CH2]C)[CH2]C`, the survivor count [1] is reported as 2 of 6 and the survivor count [2] is reported as 1 of 6 and 3 of 10.

With `CC(C)=CCCC(C)CCN(C)C` (centres undefined) the survivor count (T/C endpoint: mean survival time, dose: 200.0 mg/kg/injection, schedule: Q04DX003 (ip), vehicle: saline) was 1 of 6 and the survivor count (T/C endpoint: mean survival time, dose: 400.0 mg/kg/injection, schedule: Q04DX003 (ip), vehicle: saline) was 0 of 6.

For `O=C(O)C(O)C(O)C(=O)O.[NH-]C1CCCCC1[NH-].[Pt+2]` (centres undefined), the T/C (T/C endpoint: mean survival time, dose: 3.13 mg/kg/injection, schedule: Q04DX003 (ip), vehicle: water) was 129 % of control and the T/C (T/C endpoint: mean survival time, dose: 6.25 mg/kg/injection, schedule: Q04DX003 (ip), vehicle: water) was 144 % of control.

For `Nc1cc2c(c[n+](CCCCCCCC[n+]3cc4c5ccccc5c(N)cc4c4ccccc43)c3ccccc23)c2ccccc12`, the T/C (T/C endpoint: mean survival time, dose: 1.56 mg/kg/injection, schedule: Q04DX003 (ip), vehicle: other) was 128 % of control, the T/C (T/C endpoint: mean survival time, dose: 3.13 mg/kg/injection, schedule: Q04DX003 (ip), vehicle: other) was 135 % of control and the T/C (T/C endpoint: mean survival time, dose: 6.25 mg/kg/injection, schedule: Q04DX003 (ip), vehicle: other) was 132 and 141 % of control. For the same molecule, the T/C (T/C endpoint: mean survival time, dose: 12.5 mg/kg/injection, schedule: Q04DX003 (ip), vehicle: other) was 147 % of control and the T/C (T/C endpoint: mean survival time, dose: 25.0 mg/kg/injection, schedule: Q04DX003 (ip), vehicle: other) was 147 and 147 % of control [5 of 6 alive].

In the case of `CC(C)C(=NO)C(C)C`, the survivor count [3] is reported as 6 of 6.

For `Cc1cccc(CN(C)C)n1`, the survivor count (T/C endpoint: mean survival time, dose: 200.0 mg/kg/injection, schedule: Q04DX002 (ip), vehicle: saline) was 0 of 3 and the survivor count (T/C endpoint: mean survival time, dose: 400.0 mg/kg/injection, schedule: Q04DX002 (ip), vehicle: saline) was 0 of 3.

`Cc1cc([N+](=O)[O-])ccc1NC(=S)NC(=O)COc1ccccc1` was tested, and the survivor count [2] was 6 of 6, the survivor count [3] was 3 of 3 and the survivor count (T/C endpoint: mean survival time, dose: 400.0 mg/kg/injection, schedule: Q04DX002 (ip), vehicle: saline with Tween-80) was 3 of 3.

For `CC(=O)OCCC(C)Nc1ccnc2cc(Cl)ccc12` (centres undefined), the survivor count (T/C endpoint: mean survival time, dose: 200.0 mg/kg/injection, schedule: Q04DX003 (ip), vehicle: saline with Tween-80) was 1 of 6 and the survivor count [4] was 0 of 6.
